This is an account of results in article PMC9108607, “The intrinsically disordered CARDs‐Helicase linker in RIG‐I is a molecular gate for RNA proofreading”.

Positions count from the first letter of the chain named. Construct, isoform or probe ends are uncertain for at least one entry. For some of these results: A weaker result is weaker than the reference pair of the same experiment. Tags and fusion partners may be left off the protein sequences shown. For some of these results: At least one verdict rests on a figure or table, not on a statement of the authors. For some of these results: Whether high values mean tight binding is not given here for every scale.

Common to all, as to experiment: RNA-dependent ATPase titration (KD,app)
Series [1] addresses T1, CHL-Hel-CTD cf190-210 D194K,E196K,E198K,D199K,E201K,D202K,E205K,D208K (human) (UniProt O95786).
T1 sequence (looked up, limits assumed): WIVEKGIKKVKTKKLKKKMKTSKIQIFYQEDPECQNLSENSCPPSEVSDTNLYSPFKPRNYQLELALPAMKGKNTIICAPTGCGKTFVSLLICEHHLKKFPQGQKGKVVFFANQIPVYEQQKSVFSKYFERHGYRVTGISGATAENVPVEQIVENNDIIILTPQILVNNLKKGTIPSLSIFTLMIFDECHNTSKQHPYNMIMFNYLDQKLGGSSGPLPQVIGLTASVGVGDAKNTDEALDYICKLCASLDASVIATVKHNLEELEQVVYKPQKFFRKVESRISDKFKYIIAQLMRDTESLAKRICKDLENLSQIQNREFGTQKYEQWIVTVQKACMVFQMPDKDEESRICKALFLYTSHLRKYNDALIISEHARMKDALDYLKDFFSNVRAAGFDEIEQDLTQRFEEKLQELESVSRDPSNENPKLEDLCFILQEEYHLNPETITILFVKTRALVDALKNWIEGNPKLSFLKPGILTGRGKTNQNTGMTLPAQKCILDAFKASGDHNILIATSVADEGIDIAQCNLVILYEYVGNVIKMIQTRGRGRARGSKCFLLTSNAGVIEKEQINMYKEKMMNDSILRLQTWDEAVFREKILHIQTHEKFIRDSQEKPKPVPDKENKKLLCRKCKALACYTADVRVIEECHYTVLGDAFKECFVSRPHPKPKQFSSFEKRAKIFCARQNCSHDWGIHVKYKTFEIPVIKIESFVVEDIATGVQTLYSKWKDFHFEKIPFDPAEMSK
The note with it: 1 mM ATP, Buffer A: 50 mM MOPS pH 7.4, 5 mM DTT, 5 mM MgCl2, 0.01% Tween20, 25°C (fluorimetry: 15 nM RNA; ATPase: 15 nM protein, 1 mM ATP), recombinant protein, protein details: 6xHis-SUMO removed by Ulp1.

The next series deals with T2, WT RIG-I (human) (UniProt O95786).
T2 sequence (looked up, limits assumed): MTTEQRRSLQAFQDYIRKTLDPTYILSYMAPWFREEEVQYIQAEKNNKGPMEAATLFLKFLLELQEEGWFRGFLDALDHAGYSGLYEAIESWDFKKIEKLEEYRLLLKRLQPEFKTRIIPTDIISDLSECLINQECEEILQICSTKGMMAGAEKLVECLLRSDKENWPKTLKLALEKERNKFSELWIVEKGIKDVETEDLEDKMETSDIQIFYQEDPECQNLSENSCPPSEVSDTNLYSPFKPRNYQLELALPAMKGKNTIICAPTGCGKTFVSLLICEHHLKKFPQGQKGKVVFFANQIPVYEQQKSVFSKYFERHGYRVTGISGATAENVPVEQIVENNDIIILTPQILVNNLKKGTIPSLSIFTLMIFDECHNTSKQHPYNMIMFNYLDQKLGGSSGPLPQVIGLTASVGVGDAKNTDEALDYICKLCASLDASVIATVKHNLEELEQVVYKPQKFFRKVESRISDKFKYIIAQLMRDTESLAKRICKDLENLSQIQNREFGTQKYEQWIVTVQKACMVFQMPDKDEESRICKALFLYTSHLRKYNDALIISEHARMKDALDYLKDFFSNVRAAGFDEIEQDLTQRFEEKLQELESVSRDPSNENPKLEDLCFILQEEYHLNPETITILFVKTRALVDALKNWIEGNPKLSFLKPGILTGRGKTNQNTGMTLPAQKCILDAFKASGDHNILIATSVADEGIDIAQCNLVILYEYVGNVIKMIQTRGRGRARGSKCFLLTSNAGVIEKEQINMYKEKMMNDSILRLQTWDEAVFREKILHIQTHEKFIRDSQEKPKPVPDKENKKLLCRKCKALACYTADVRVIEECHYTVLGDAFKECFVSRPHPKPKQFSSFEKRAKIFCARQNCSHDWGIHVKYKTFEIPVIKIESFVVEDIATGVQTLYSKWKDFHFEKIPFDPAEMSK
The note with it: 1 mM ATP; 5'OH; Buffer A: 50 mM MOPS pH 7.4, 5 mM DTT, 5 mM MgCl2, 0.01% Tween20, 25°C (fluorimetry: 15 nM RNA; ATPase: 15 nM protein, 1 mM ATP); recombinant protein; protein details: 6xHis-SUMO removed by Ulp1; label: complement printed with 5' biotin and 3' DY547.

A further series concerns the target T3, Hel-CTD (human) (UniProt O95786).
T3 sequence (looked up, limits assumed): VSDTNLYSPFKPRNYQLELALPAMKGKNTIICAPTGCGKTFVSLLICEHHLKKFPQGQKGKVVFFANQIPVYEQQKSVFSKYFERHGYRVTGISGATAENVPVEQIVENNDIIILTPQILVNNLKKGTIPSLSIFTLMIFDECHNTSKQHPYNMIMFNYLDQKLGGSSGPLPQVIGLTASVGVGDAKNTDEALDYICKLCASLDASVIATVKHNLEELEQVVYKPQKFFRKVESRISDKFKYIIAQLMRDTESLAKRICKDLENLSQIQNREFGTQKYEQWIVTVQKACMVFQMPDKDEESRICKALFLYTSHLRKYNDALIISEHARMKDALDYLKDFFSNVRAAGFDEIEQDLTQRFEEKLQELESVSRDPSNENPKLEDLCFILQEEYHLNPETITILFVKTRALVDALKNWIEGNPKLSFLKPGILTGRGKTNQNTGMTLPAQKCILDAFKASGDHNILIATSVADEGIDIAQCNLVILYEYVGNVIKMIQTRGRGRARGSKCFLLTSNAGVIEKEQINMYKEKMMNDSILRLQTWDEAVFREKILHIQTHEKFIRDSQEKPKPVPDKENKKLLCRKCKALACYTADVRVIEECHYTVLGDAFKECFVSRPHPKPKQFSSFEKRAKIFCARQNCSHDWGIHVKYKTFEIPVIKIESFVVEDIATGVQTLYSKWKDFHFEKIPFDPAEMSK
The note with it: 1 mM ATP, value only in figure, Buffer A: 50 mM MOPS pH 7.4, 5 mM DTT, 5 mM MgCl2, 0.01% Tween20, 25°C (fluorimetry: 15 nM RNA; ATPase: 15 nM protein, 1 mM ATP), recombinant protein, protein details: 6xHis-SUMO removed by Ulp1.

In another series the target is T4, CHL-Hel-CTD (human) (UniProt O95786).
T4 sequence (looked up, limits assumed): T1 sequence (looked up, limits assumed) with K9D, K11E, K13E, K14D, K16E, K17D, K20E, K23D
The settings on record: 1 mM ATP, Buffer A: 50 mM MOPS pH 7.4, 5 mM DTT, 5 mM MgCl2, 0.01% Tween20, 25°C (fluorimetry: 15 nM RNA; ATPase: 15 nM protein, 1 mM ATP), recombinant protein, protein details: 6xHis-SUMO removed by Ulp1.

The mark [2] stands for this setting: CHL inhibition lost, 5'OH, label: complement printed with 5' biotin and 3' DY547.
The mark [3] stands for this setting: 5'OH, label: complement printed with 5' biotin and 3' DY547.
Where [4] appears, read: range for three non-PAMP RNAs, 5'OH, label: complement printed with 5' biotin and 3' DY547.

“ACGUCCUGAUAGUUAGUAUCCAUCG / CGAUGGAUACUAACUAUCAGGACGUAU [5'OH 3'ovg ds25]”: the results for the binding result (in series [1] (setting [2]); with Hel-CTD (human) (setting [3]); in the series with CHL-Hel-CTD (human) (setting [4])) were “binds”, “binds” and “binds more weakly”, respectively. In the series with WT RIG-I (human), the binding signal (fold weaker than Hel-CTD) is 60.

As to “CUAUACGUCCUGAUAGUUAGUAUCCAUCG / CGAUGGAUACUAACUAUCAGGACGUAU [5'OH 5'ovg ds27]”, the binding result is recorded as “binds” in series [1] (setting [2]), “binds” with Hel-CTD (human) (setting [3]) and “binds more weakly” with CHL-Hel-CTD (human) (setting [4]). In the series with WT RIG-I (human), the binding signal (fold weaker than Hel-CTD) was 240.

For “AUACGUCCUGAUAGUUAGUAUCCAUCG / CGAUGGAUACUAACUAUCAGGACGUAU [5'ppp ds27]”, the binding result in series [1] (value only in figure, 5'ppp on strand 1, label: 3' DY547 and 5' biotin on strand 2) is recorded as “binds”; with Hel-CTD (human) (5'ppp on strand 1, label: 3' DY547 and 5' biotin on strand 2), “binds”; with CHL-Hel-CTD (human) (not weaker than Hel-CTD, 5'ppp on strand 1, label: 3' DY547 and 5' biotin on strand 2) it was “binds”.

Take “ATACGUCCUGAUAGUUAGUAUCCATC / CGATGGAUACUAACUAUCAGGACGTA [ds26 stem RNA]”: the binding result was “binds” in series [1] (CHL inhibition lost, DNA at both ends: strand 1 nt 1-5 and 23-26, strand 2 nt 1-5 and 23-26, rest RNA, label: internal Cy3 in strand 2 after C13 (AAC(Cy3)UAU)); “binds” with Hel-CTD (human) (DNA at both ends: strand 1 nt 1-5 and 23-26, strand 2 nt 1-5 and 23-26, rest RNA, label: internal Cy3 in strand 2 after C13 (AAC(Cy3)UAU)).
